Drawing on PMC11145777, this text covers binding for 1 substance.

By UniProt entry, the sequences of proteins in these tests, tags left out.
UniProt P16401: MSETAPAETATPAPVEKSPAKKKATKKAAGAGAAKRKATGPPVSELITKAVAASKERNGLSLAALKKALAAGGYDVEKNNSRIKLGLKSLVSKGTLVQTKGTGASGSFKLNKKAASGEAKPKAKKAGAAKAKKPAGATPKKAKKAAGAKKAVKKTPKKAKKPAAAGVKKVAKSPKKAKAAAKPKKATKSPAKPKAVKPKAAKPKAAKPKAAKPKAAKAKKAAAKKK

The target in one test is HA-CpA (UniProt P49450). Kind of test: co-IP; native (unfixed) ChIP on mono-nucleosomes: native CpA from untransfected HeLa, GFP-CpA and HA-CpA from transfected HeLa, Western for H1.5 (three antibodies) and H2A; H3 ChIP done sequentially after the native CpA ChIP.
Test [1] has as its target native CENP-A (human (endogenous in HeLa)) (UniProt P49450). Described as above.

These are yes or no findings as the source states them, for the method shown. Binding seen in cells or lysates may run through a third protein. Some entries that bind do so weakly or less than the wild type.

For “linker histone H1.5 (from UniProt P16401 1-226)”, the binding result (with HA-CpA; in test [1]) was “binds” in each case.
